Test [1] deals with chimera Lin-D1 (linear domain-1 of P. falciparum AMA1 on P. berghei AMA1 scaffold) (Plasmodium falciparum; Plasmodium berghei). Briefly: Western blot, linear domain chimera reactivity (cell printed once for the group). For orientation: Immunoblotting shows a protein as a band on a membrane.
The target of test [2] is chimera Lin-D2 (linear domain-2 of P. falciparum AMA1 on P. berghei AMA1 scaffold) (Plasmodium berghei; Plasmodium falciparum). Briefly: Western blot on chimeric proteins.
In test [3] the target is chimera Lin-D3 (linear domain-3 of P. falciparum AMA1 on P. berghei AMA1 scaffold) (Plasmodium berghei; Plasmodium falciparum). Description: Western blot, linear domain chimera reactivity.

These are yes or no findings as the source states them, for the method shown. For some of these results: Binding calls can cover weak binding; strength is not graded here.

B1: monoclonal antibody 1B10 (antibody, V domains shown)
VH: EVQLQESGPGLVQPSQSLSITCTVSGFSLNMYGVHWVRQSPGKGLEWLGVIWSGGTTDYNAAFISRLSINRDNSKSQVFFKMNSLQTDDTAIYYCVRNNGYYVDAMDYWGQGTSVAVSS
VL: DVVMTQTPLSLPVSLGDQASISCRSSQSLVHSNGNTYLHWYLQRPGQSPKLLIYKVSNRFSGVPDRFSGSGSGTDFTLKISRVEAEDLGVYFCSQSTLGPTFGGGTKLEMQR
For the molecule B1, the binding entry in test [1] is given as “binds”; in test [2], “no binding”.

B2: monoclonal antibody 4E11 (antibody, V domains shown)
VH: EVQLQESGPGLVRPSQSLSITCTVSGFSLPLYGVHWVRQSPGKGLEWLGVIWSGGSTDYNAAFVSRLSISKDNSKSQVFFEMNSLQADDTATYYCARNNGYYVDAMDYWGQGTSVTVSS
VL: DVVMTQTPLSLPVSLGDQASISCRSSQSLVHSNGNTYLHWYLQKPGQSPKLLIFKVSNRFSGVPDRFSGSGSGTDFTLQISRVEAEDLGFYFCSQSTHVPTFGGGTKLEIKR
On to B2, for which the binding entry is recorded as “binds” in test [1] and “no binding” in test [2].

B3: monoclonal antibody 4E8 (antibody, V domains shown)
VH: EVQLQESGPGLVQPSQSLSITCTVSDFSLIMYGVHWVRQSPGKGLEWLGVIWSGGSTDYNAAFISRLSISKDNSKSQVFFKMNSLQADDTAIYYCARNNGYYVDAMDYWGQGTSVTVSS
VL: DVVMTQTPLSLPVSLGDQASISCRSSQSLVHNNGNTYLHWYLQKPGQSPKLLIYKVSNRFFGVPDRFSGSGSGTDFTLKISRVEAEDLGVYFCSQSTHVPTFGGGTKLEIKR
Regarding B3, the binding entry is on record as “binds” in test [1] and “no binding” in test [2].

B4: monoclonal antibody 1E10 (antibody, V domains shown)
VH: EVQLQESGAELAKPGASVKLSCKASGYTFTNYLMHWIKQRPGQGLEWIGYINHGSGYTNYNQKFIDRATLTADKSSSTAYMQLRSLTYEDSAVYYCVHGYFDVWGTGTTVTVSS
VL: QIVLTQSPTIMSASPGEKVTMTCSASSSVTYMHWYQQKPGTSPKRWIYDTSKLASGVPARFSGSGSGTSYSLTISSMEAEDAATYYCHQRSSYPTFGGGTKLEIKR
With B4, in test [3], the binding result is listed as “binds”.
